Measurements reported in PubChem BioAssay AID1259308 (NCATS, 2017)
The deposit covers about 59,000 reagents; this is an unselected part. About 1,510 of them (2.6%) count as active. 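Calls use total luciferase alone and ignore viability, so some active siRNAs may act by altering cell number.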 A number with no mark means an inactive call. The numbers tell different reagents against one gene apart. Further read-outs or replicates are left out here.

Assay: 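Knock-downs that increase output of a recombinant reporter protein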 (primary screen)
Cells: human HEK293 embryonic kidney cells stably expressing firefly luciferase (HEK-CMV-Luc2-Hygro)
Knock-down reagent: single siRNA against human genes, 0.8 pmol siRNA per well
Duration: 72 h
Measured: 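Luciferase light (ONE-Glo) measured on one replicate plate set and viability (CellTiter-Glo) on the other, scaled to a negative control siRNA, with robust z-scores and luciferase per cell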
Direction: total luciferase, z-score and total luciferase, % of control: higher = more reporter protein produced; luciferase per cell, z-score: higher = more reporter output per viable cell
Call rule: 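Active when the median/MAD z-score for overall luciferase is greater than 3; a gene was taken forward for validation with new siRNAs if at least two of its three siRNAs passed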
Calls: active = raised luciferase; inactive = no rise

| Target gene | reagent | total luciferase, z-score | total luciferase, % of control | luciferase per cell, z-score |
| --- | --- | --- | --- | --- |
| KRT40 (keratin 40) | 1 | -1.39 | 54.2 | -2.05 |
| KRT40 (keratin 40) | 2 | 1.86 | 119 | 1.83 |
| KRT40 (keratin 40) | 3 | 1.3 | 108 | 1.63 |
| TPH1 (tryptophan hydroxylase 1) | 1 | -0.283 | 76.3 | 0.219 |
| TPH1 (tryptophan hydroxylase 1) | 2 | -2.7 | 28.2 | -2.7 |
| TPH1 (tryptophan hydroxylase 1) | 3 | -0.596 | 70 | -0.82 |
| CHM (CHM Rab escort protein) | 1 | -0.63 | 69.4 | -1.22 |
| CHM (CHM Rab escort protein) | 2 | -0.461 | 72.7 | -0.879 |
| CHM (CHM Rab escort protein) | 3 | -1.68 | 48.4 | -2.06 |
| CCT4 (chaperonin containing TCP1 subunit 4) | 1 | 2.04 | 122 | 2.04 |
| CCT4 (chaperonin containing TCP1 subunit 4) | 2 | 2.4 | 130 | 2.26 |
| CCT4 (chaperonin containing TCP1 subunit 4) | 3 | 2.08 | 123 | 1.45 |
| TPST1 (tyrosylprotein sulfotransferase 1) | 1 | -0.327 | 75.4 | -0.514 |
| TPST1 (tyrosylprotein sulfotransferase 1) | 2 | -0.317 | 75.6 | -0.629 |
| TPST1 (tyrosylprotein sulfotransferase 1) | 3 | -1.12 | 59.6 | -0.822 |
| BTBD8 (BTB domain containing 8) | 1 | -0.765 | 66.7 | -0.286 |
| BTBD8 (BTB domain containing 8) | 2 | 3 (active) | 142 | 3.12 |
| BTBD8 (BTB domain containing 8) | 3 | -1.51 | 51.8 | -1.31 |
| LOC727775 (retired record) | 1 | 0.0479 | 82.8 | 0.0491 |
| LOC727775 (retired record) | 2 | 3.34 (active) | 148 | 1.68 |
| LOC727775 (retired record) | 3 | 1.06 | 103 | 1.86 |
| CEP44 (centrosomal protein 44) | 1 | -2.52 | 31.7 | -3.62 |
| CEP44 (centrosomal protein 44) | 2 | -0.186 | 78.2 | -0.559 |
| CEP44 (centrosomal protein 44) | 3 | -0.53 | 71.3 | -0.877 |
| ARHGAP44 (Rho GTPase activating protein 44) | 1 | -0.835 | 65.3 | -0.141 |
| ARHGAP44 (Rho GTPase activating protein 44) | 2 | 1.8 | 118 | 1.46 |
| ARHGAP44 (Rho GTPase activating protein 44) | 3 | 0.653 | 94.9 | 1.19 |
| MS4A3 (membrane spanning 4-domains A3) | 1 | 1.79 | 117 | 1.88 |
| MS4A3 (membrane spanning 4-domains A3) | 2 | 0.196 | 85.8 | 0.491 |
| MS4A3 (membrane spanning 4-domains A3) | 3 | -0.237 | 77.2 | 0.186 |
| SUSD1 (sushi domain containing 1) | 1 | 0.424 | 90.3 | 0.593 |
| SUSD1 (sushi domain containing 1) | 2 | -0.429 | 73.4 | -0.0256 |
| SUSD1 (sushi domain containing 1) | 3 | -1.27 | 56.6 | -1.18 |
| NME9 (NME/NM23 family member 9) | 1 | -0.578 | 70.4 | -0.286 |
| NME9 (NME/NM23 family member 9) | 2 | -0.0116 | 81.7 | -0.122 |
| NME9 (NME/NM23 family member 9) | 3 | -0.069 | 80.5 | -0.282 |
| DHCR7 (7-dehydrocholesterol reductase) | 1 | -1.23 | 57.4 | -1.11 |
| DHCR7 (7-dehydrocholesterol reductase) | 2 | -0.154 | 78.8 | 0.636 |
| DHCR7 (7-dehydrocholesterol reductase) | 3 | 0.816 | 98.1 | 0.00417 |
| KLF13 (KLF transcription factor 13) | 1 | -0.966 | 62.7 | -0.682 |
| KLF13 (KLF transcription factor 13) | 2 | -0.501 | 71.9 | -0.727 |
| KLF13 (KLF transcription factor 13) | 3 | 0.475 | 91.3 | 1.67 |
| OAZ1 (ornithine decarboxylase antizyme 1) | 1 | 3.99 (active) | 161 | 2.44 |
| OAZ1 (ornithine decarboxylase antizyme 1) | 2 | 2.3 | 128 | 1.55 |
| OAZ1 (ornithine decarboxylase antizyme 1) | 3 | 3.15 (active) | 145 | 1.75 |
| ALAS2 (5'-aminolevulinate synthase 2) | 1 | 0.257 | 87 | 0.0284 |
| ALAS2 (5'-aminolevulinate synthase 2) | 2 | 1.51 | 112 | 1.59 |
| ALAS2 (5'-aminolevulinate synthase 2) | 3 | 0.318 | 88.2 | 0.269 |
| SMCO3 (single-pass membrane protein with coiled-coil domains 3) | 1 | 0.0436 | 82.8 | -1.49 |
| SMCO3 (single-pass membrane protein with coiled-coil domains 3) | 2 | 0.155 | 85 | 9.88 |
| SMCO3 (single-pass membrane protein with coiled-coil domains 3) | 3 | -0.137 | 79.2 | 0.138 |
| POP5 (POP5 ribonuclease P/MRP subunit) | 1 | -0.179 | 78.3 | 0.814 |
| POP5 (POP5 ribonuclease P/MRP subunit) | 2 | 0.00139 | 81.9 | 0.638 |
| POP5 (POP5 ribonuclease P/MRP subunit) | 3 | 0.889 | 99.6 | 0.83 |
| DDX17 (DEAD-box helicase 17) | 1 | -2.12 | 39.7 | -2.77 |
| DDX17 (DEAD-box helicase 17) | 2 | -0.469 | 72.6 | 0.472 |
| DDX17 (DEAD-box helicase 17) | 3 | 0.352 | 88.9 | -0.422 |

Entries listed so far marked active, once more:
| Target gene | reagent | total luciferase, z-score | total luciferase, % of control | luciferase per cell, z-score |
| --- | --- | --- | --- | --- |
| BTBD8 (BTB domain containing 8) | 2 | 3 (active) | 142 | 3.12 |
| LOC727775 (retired record) | 2 | 3.34 (active) | 148 | 1.68 |
| OAZ1 (ornithine decarboxylase antizyme 1) | 1 | 3.99 (active) | 161 | 2.44 |
| OAZ1 (ornithine decarboxylase antizyme 1) | 3 | 3.15 (active) | 145 | 1.75 |
